Primary screen of a compound library

From ChEMBL document CHEMBL3988442, “University of Dundee, Small-Polar-MMV Screening Library” (2021).

Mtb growth Cornell: 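Whole-cell assay for inhibitors of Mycobacterium tuberculosis growth, labelled Cornell in the record; the read-out is not stated. The concentration is filed as 10 mM, unlikely as a test dose, so the dose is not known. The record gives no direction; compounds strong in two other growth screens of this library score well above the rest, so higher reads as stronger inhibition. Size under these conditions: about 53,000 compounds, about 900 of them at 50% or above in at least one test.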
Mtb heat-shock: 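Assay on Mycobacterium tuberculosis, filed only as a heat shock assay from Cornell; the read-out is not stated. The concentration is filed as 10 mM, unlikely as a test dose, so the dose is not known. The record gives no direction; compounds that gave an IC50 in retests scored well above the rest, so higher reads as stronger inhibition. Size under these conditions: about 69,000 compounds, about 930 of them at 50% or above in at least one test.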

The filed quantity is “Percent Effect” (%). The controls that fix the scale are not given in the record; negative values are as filed. Compounds were drawn at random from those tested, without regard to their results. A dash means the value is not listed here; it may have been measured.

SMILES | Mtb growth Cornell | Mtb heat-shock
c1cncc(CN2CCCC3(COCCN(c4cncnc4)C3)C2)c1 (stereo not drawn) | 22.62 | -5.254
O[C@H]1CC[C@@H](Cc2cc(-c3ccccn3)on2)O[C@@H]1CNCC1CC1 | 5.313 | -17.18
COc1ccc(CC(=O)Nc2ccc3ncn(C(C)C)c(=O)c3c2)cc1 | 25.62 | 3.828
c1cnn(C2CN(c3nc(-c4ccncc4)nc4c3CCC4)C2)c1 | - | -9.9
O=C(Nc1cccnc1-n1cc(Br)cn1)C1CCCC1 | -1.816 | -28.52
CC(=O)N1CCn2c(C(=O)N(C)C)cnc2C1 | - | -200.4
[H][C@@]12C[C@H](C(=O)NC3CCC3)[C@@]([H])(CN(C(=O)Nc3ccc(F)cc3)C1)O2 | 1.021 | -5.328
O=C(CCCn1cncn1)N1CCC2(CCCN(C3CCCC3)C2=O)C1 (stereo not drawn) | - | -0.4388
Cc1nc(Cn2c3c(ccc2=O)CCN(CC2CCC2)CC3)cs1.O=C(O)C(F)(F)F.O=C(O)C(F)(F)F | 24.28 | -18.24
CCS(=O)(=O)NCC(=O)N(C1CC1)C1Cc2ccccc2C1 | -2.456 | 0.6963
COc1ccc(CN(C)C2CSCCSC2)c2cccnc12 | 7.681 | -0.6696
Cc1nnc2n1CCN(Cc1ncc(-c3ccccc3)o1)C2 | - | -5.111
CCN(C)C(=O)CCC(=O)c1cccs1 | -68.86 | 4.187
Cc1nc(C)n(CC2CCCCN2Cc2cnc(C)s2)n1 (stereo not drawn) | -27.37 | 7.567
O=C(O)C(F)(F)F.O=C(O)C(F)(F)F.[H][C@@]12C[C@@H](Oc3cccc(F)c3)CN1CCN(C(=O)c1ccncc1)C2 | 12.79 | -21.91
COC(=O)NCCC(=O)NC(C)Cc1ccccc1Br (stereo not drawn) | 2.385 | 10.16
CN(C)C(=O)COCC1CN(Cc2ccco2)Cc2ncn(C)c21.O=C(O)C(F)(F)F.O=C(O)C(F)(F)F (stereo not drawn) | 0.7528 | 31.48
CC(C)N1CCC(CC(=O)N(C)CC(=O)c2ccc(O)cc2)CC1 | 29.49 | -28.13
[H][C@]12CC[C@]([H])(C1)N(C(=O)c1cccnc1-c1ccc(OC)nc1)C2 | -46.55 | -7.1
N#Cc1nccnc1N1CCC(OCCCc2ccccc2)C1 (stereo not drawn) | 33.94 | -2.125
CSc1ccsc1C(=O)NCCNC(=O)C1CC1 | 13.05 | 0.04334
CCOc1ccc(-c2nc(C(=O)NCC3CCOC3)cs2)cc1 (stereo not drawn) | -0.6865 | 18.57
Cc1c[nH]c(CN(C)C(=O)C(C)(C)NC(=O)c2cccs2)n1 | 5.757 | -4.445
CN(C)c1ncc(-c2cccc(C(N)=O)c2)c(C2CNCCO2)n1.Cl (stereo not drawn) | 28.84 | -21.53
CCc1ncc2c(n1)CN(CC(=O)Nc1cc(C)no1)CC2 | 26.48 | -7.627
CCc1noc(C2CCCCN2C(=O)c2ccoc2C)n1 (stereo not drawn) | - | -3.612
CCOc1cc(C)nc(N2CCN(C(=O)c3csnn3)CC2)n1 | - | -8.457
OCCN(Cc1nc(-c2ccc3c(c2)OCO3)no1)Cc1cccs1 | 20.17 | -7.301
Cc1ccccc1OCC(=O)N1CCN(C2CCOC2=O)CC1 (stereo not drawn) | - | 4.7
CCOC(=O)NC(CNC(=O)c1ccccn1)CC(C)C (stereo not drawn) | -20.85 | -15.42
O=C(O)C(F)(F)F.[H][C@@]12CN(C(=O)c3ccncc3F)C[C@]1([H])OCCN2C | 32.36 | -11.38
COCCN1CCN(S(C)(=O)=O)Cc2cccnc21 | 3.603 | 37.52
Cc1ccsc1CN1CCC(c2nnc(Cn3cccn3)n2C)CC1 | 14.24 | -0.3911
Cc1ccc(OCCC(=O)NC2CC(=O)N(C)C2)cc1C (stereo not drawn) | 5.002 | 9.809
Cc1nnc(NC(=O)CN(C)C2CCCN(c3cccnn3)C2)s1 (stereo not drawn) | -9.995 | -10.91
CNc1cc(-c2ccc(COCCN)cc2)c2cc[nH]c2n1 | 26.91 | 21.64
COC(=O)COc1nc(CC(C)C)c2c(c1C#N)CCCC2 | 0.1661 | 5.69
CCCS(=O)(=O)N1CCc2c(COCC)cncc2C1.O=C(O)C(F)(F)F | 12.86 | -10.9
O=C(Nc1cnn(Cc2ccc(F)cc2Cl)c1)C1CC1 | 10.73 | 39.04
CCn1ncc2c1C(COC)N(C(=O)c1ccc3c(c1)OCO3)CC2.O=C(O)C(F)(F)F (stereo not drawn) | -49.16 | 12.21
O=c1c2cc3c(cc2nnn1Cc1ccccc1)OCCO3 | -51.62 | 3.024
O=C(O)C(F)(F)F.[H][C@]12C[C@@H](Cn3cncn3)N(c3nccs3)[C@@]1([H])CCN(C(C)=O)C2 | 9.389 | 0.9255
O=C1CC2(CCN(Cc3ncc[nH]3)CC2)CN1Cc1ccc(Cl)cc1 | -47.04 | -6.034
Cc1nn(C)c2ncnc(NCc3nncn3C3CCCCC3)c12 | - | 3.545
CN(C(=O)OC(C)(C)C)C1CCN(C(=O)c2ccc(Cl)o2)C1 (stereo not drawn) | 29.56 | 9.503
O=C(Cn1cccn1)N1CCc2[nH]nc(-c3ccc4c(c3)OCO4)c2C1 | 10.53 | 6.014
Cc1cc(C)n(CC2CCCN2C(=O)CCc2ccco2)n1 (stereo not drawn) | - | -0.6553
CN(Cc1nc(N2CCCC2)ncc1-c1ccncc1)C(=O)C(C)(C)C.Cl | 47.07 | 6.308
O=C(c1cc(C2CC2)nc2onc(-c3ccccc3)c12)N1CC(O)C1 | - | 14.21
CCc1nc(CC2CN(c3ncnc4sc(C)c(C)c34)CCO2)no1 (stereo not drawn) | 24.51 | 4.914
CCC1COCCN1C(=O)CNC(=O)c1ccsc1 (stereo not drawn) | 9.285 | 2.85
O=C(O)C(F)(F)F.O=C(O)C(F)(F)F.[H][C@@]12CCN(Cc3ccco3)[C@]1([H])CC[C@@H](C(=O)NCCc1ccncc1)O2 | 14.04 | -44.95
Cc1ccnc(C2(C)CCCN2C(=O)c2cnccn2)n1 (stereo not drawn) | -46.33 | -10.87
CCCc1nc(C(C)(C)NC(=O)C2CC(=O)N(C3CC3)C2)no1 (stereo not drawn) | - | 0.8426
CCn1cc(CNC2CCN(c3cccc(C)c3C)CC2)cn1 | 10.29 | -31.17
CNC(=O)CCN(C)c1nc(-c2ccncc2)nc2c1CCNC2 | - | -9.684
Cn1nccc1CCC(=O)NC1CCCN(c2ccccn2)C1 (stereo not drawn) | 3.367 | 4.522
CCc1nnc(SCc2nonc2C)n1C | 24.92 | 5.609
CS(=O)(=O)N1CCCC(n2nnn(-c3ccccc3)c2=O)C1 (stereo not drawn) | 31.65 | -3.748
COc1ccc2c(c1)CC(NCCCn1cc(C)cn1)CC2 (stereo not drawn) | - | 2.037
Cc1occc1C(=O)N1Cc2nccn2CC(CN2CCCC2)C1.O=C(O)C(F)(F)F (stereo not drawn) | 17.97 | -2.88
O=C(O)C(F)(F)F.O=C1CC2(CCN(Cc3ccco3)C2)CN1c1ccc2c(c1)OCO2 (stereo not drawn) | 29.85 | 19.72
COc1cc(C)sc1C(=O)N1CC(c2cccnc2)C1 | - | -5.761
Cc1ccnc(C2(C)CCCN2S(=O)(=O)c2ccccc2)n1 (stereo not drawn) | 12.5 | -14.58
COc1ccc(Cl)cc1CN(C)C(=O)CN1C(=O)OC[C@@H]1C(C)C | -49.23 | 3.418
CCc1nc(CC(=O)N2CCn3c(C)nnc3C2)cs1 | - | 7.636
Cc1ccc(C(=O)N2CC(C(N)=O)O[C@H](C)C2)c(F)c1 (stereo partly drawn) | -55.4 | 7.287
CN(C)c1cc(C(=O)N2CCN(S(C)(=O)=O)CC2)ccn1 | 2.486 | 21.64
[H][C@@]12CN(c3ccccc3)C(=O)N1CCN(C1CCN(C(C)=O)CC1)C2 | - | 1.464
COc1ccc(N(C)C(=O)c2cccc(S(C)(=O)=O)c2)cn1 | -26.33 | 10.57
[H][C@]12CN(C(=O)c3cnn(C)c3)CC[C@@]1(O)CCN(C(=O)C1CCCC1)C2 | 13.48 | -10.02

For reference, 6 entries once more:

SMILES	Mtb growth Cornell	Mtb heat-shock
COCCN1CCN(S(C)(=O)=O)Cc2cccnc21	3.603	37.52
CCC1COCCN1C(=O)CNC(=O)c1ccsc1 (stereo not drawn)	9.285	2.85
OCCN(Cc1nc(-c2ccc3c(c2)OCO3)no1)Cc1cccs1	20.17	-7.301
c1cnn(C2CN(c3nc(-c4ccncc4)nc4c3CCC4)C2)c1	-	-9.9
CCc1nc(CC2CN(c3ncnc4sc(C)c(C)c34)CCO2)no1 (stereo not drawn)	24.51	4.914
c1cncc(CN2CCCC3(COCCN(c4cncnc4)C3)C2)c1 (stereo not drawn)	22.62	-5.254